This note sets out measurements from publication PMC4595607, “mRNA export through an additional cap-binding complex consisting of NCBP1 and NCBP3” (Nature Communications, 2015).

Chains of the proteins cited; added tags and fusions are not shown.
UniProt Q9H814: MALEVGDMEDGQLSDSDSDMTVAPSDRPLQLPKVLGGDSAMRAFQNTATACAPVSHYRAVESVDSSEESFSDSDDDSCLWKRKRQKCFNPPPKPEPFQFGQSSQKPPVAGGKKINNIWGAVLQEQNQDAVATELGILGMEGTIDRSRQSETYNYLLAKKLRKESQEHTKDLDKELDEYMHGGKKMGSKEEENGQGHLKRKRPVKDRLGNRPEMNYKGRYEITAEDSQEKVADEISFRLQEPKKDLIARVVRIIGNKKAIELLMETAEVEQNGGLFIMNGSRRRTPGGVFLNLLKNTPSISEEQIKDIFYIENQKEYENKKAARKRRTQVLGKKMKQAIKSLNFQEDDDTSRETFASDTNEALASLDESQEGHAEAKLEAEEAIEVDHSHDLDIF
UniProt Q13838: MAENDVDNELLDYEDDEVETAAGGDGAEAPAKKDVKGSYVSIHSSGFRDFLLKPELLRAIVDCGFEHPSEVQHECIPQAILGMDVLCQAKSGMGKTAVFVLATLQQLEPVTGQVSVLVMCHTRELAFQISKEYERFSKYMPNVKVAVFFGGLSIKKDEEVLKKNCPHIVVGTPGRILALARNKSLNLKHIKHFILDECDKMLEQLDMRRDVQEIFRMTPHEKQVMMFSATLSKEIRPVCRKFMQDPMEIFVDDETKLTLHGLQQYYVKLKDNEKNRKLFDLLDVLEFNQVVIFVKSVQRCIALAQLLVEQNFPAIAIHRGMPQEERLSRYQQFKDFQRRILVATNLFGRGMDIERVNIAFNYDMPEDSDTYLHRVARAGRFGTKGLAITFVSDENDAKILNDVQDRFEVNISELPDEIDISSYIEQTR
UniProt Q09161: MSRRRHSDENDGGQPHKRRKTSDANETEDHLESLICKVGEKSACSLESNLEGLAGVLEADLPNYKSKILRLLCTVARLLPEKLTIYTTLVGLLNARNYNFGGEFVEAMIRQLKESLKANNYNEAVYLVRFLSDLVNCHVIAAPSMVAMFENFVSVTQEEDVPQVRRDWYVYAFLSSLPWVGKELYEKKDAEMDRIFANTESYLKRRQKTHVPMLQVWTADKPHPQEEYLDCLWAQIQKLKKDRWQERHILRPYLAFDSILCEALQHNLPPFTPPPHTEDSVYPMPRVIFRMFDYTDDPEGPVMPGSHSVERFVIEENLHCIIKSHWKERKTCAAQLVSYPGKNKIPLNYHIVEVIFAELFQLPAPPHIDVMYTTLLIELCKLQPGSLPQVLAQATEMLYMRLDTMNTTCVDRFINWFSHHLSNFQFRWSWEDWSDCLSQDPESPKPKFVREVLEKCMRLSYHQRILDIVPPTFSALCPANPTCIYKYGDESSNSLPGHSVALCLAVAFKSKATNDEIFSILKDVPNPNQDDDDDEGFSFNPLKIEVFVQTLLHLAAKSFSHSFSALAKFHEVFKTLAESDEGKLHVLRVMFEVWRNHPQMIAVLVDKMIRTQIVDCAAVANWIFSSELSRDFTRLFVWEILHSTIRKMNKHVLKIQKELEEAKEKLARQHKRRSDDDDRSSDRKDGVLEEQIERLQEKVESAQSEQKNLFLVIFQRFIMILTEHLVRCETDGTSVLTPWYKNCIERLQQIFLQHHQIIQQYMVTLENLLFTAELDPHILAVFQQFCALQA
UniProt Q96A72: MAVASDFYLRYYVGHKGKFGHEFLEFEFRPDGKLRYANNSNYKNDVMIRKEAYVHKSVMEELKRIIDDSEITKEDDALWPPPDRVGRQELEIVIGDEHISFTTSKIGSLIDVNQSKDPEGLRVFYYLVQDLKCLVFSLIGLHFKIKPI

Assay [1] has as its target T1, GFP-tagged human C17orf85/NCBP3 (human) (UniProt Q53F19).
T1 sequence: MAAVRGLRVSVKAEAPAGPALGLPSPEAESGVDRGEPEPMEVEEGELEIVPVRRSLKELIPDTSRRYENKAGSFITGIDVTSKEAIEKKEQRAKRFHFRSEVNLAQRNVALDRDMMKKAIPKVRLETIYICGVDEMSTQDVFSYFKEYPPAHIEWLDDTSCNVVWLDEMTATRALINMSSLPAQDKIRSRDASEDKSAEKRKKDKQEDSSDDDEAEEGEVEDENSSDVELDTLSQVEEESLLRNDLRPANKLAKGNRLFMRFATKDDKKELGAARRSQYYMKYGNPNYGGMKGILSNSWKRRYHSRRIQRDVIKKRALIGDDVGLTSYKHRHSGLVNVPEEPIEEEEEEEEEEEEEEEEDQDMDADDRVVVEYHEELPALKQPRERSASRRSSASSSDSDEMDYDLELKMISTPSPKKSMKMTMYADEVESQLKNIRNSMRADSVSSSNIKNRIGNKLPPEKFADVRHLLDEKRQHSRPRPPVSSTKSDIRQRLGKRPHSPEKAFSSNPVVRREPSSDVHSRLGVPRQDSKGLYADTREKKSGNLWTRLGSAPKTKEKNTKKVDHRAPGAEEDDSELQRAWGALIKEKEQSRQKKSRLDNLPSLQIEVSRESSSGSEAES
Description: affinity purification with mass spectrometry; GFP-Trap beads; lysates of HeLa cells stably expressing GFP-tagged NCBP3, NCBP2 or RAB5C (control); lysate sonicated and treated with Benzonase; TAP buffer; label-free quantification against the control.

For assay [2], the target named is T2, GFP-tagged human NCBP2 (human) (UniProt P52298).
T2 sequence: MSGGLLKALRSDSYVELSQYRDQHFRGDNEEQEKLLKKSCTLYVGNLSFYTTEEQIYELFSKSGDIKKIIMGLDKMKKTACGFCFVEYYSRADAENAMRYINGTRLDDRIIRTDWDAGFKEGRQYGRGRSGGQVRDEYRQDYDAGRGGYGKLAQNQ
The description is as above.

Results are given in words; binding and its absence hold for the method and conditions named. Binding seen in cells or lysates may run through a third protein. Here binding means that the protein was enriched with, or labelled near, the bait; the list need not be complete. For some of these results: No binding means not detected with the bait. Tags and fused reporters may be left off the sequences shown.

Consider “phosphorylated adaptor for RNA export (PHAX) (from UniProt Q9H814 1-394)”, for which the values for the binding result in assay [1] and in assay [2] were “no binding” and “binds”, respectively.
As for DDX39B (from UniProt Q13838 1-428), the binding entry in assay [1] is “binds”.
As for NCBP1 (from UniProt Q09161 1-790), the binding entry in assay [1] and in assay [2] was “binds” each time.
For the molecule MAGOHB (from UniProt Q96A72 1-148), in assay [1], the binding result is recorded as “binds”.

B1: THOC7 (protein, UniProt Q6I9Y2 1-204)
chain: MGAVTDDEVIRKRLLIDGDGAGDDRRINLLVKSFIKWCNSGSQEEGYSQYQRMLSTLSQCEFSMGKTLLVYDMNLREMENYEKIYKEIECSIAGAHEKIAECKKQILQAKRIRKNRQEYDALAKVIQHHPDRHETLKELEALGKELEHLSHIKESVEDKLELRRKQFHVLLSTIHELQQTLENDEKLSEVEEAQEASMETDPKP
For the molecule B1, the binding result in assay [1] is recorded as “binds”.

B2: THOC1 (protein, UniProt Q96FV9 1-657)
chain: MSPTPPLFSLPEARTRFTKSTREALNNKNIKPLLSTFSQVPGSENEKKCTLDQAFRGILEEEIINHSSCENVLAIISLAIGGVTEGICTASTPFVLLGDVLDCLPLDQCDTIFTFVEKNVATWKSNTFYSAGKNYLLRMCNDLLRRLSKSQNTVFCGRIQLFLARLFPLSEKSGLNLQSQFNLENVTVFNTNEQESTLGQKHTEDREEGMDVEEGEMGDEEAPTTCSIPIDYNLYRKFWSLQDYFRNPVQCYEKISWKTFLKYSEEVLAVFKSYKLDDTQASRKKMEELKTGGEHVYFAKFLTSEKLMDLQLSDSNFRRHILLQYLILFQYLKGQVKFKSSNYVLTDEQSLWIEDTTKSVYQLLSENPPDGERFSKMVEHILNTEENWNSWKNEGCPSFVKERTSDTKPTRIIRKRTAPEDFLGKGPTKKILMGNEELTRLWNLCPDNMEACKSETREHMPTLEEFFEEAIEQADPENMVENEYKAVNNSNYGWRALRLLARRSPHFFQPTNQQFKSLPEYLENMVIKLAKELPPPSEEIKTGEDEDEEDNDALLKENESPDVRRDKPVTGEQIEVFANKLGEQWKILAPYLEMKDSEIRQIECDSEDMKMRAKQLLVAWQDQEGVHATPENLINALNKSGLSDLAESLTNDNETNS
With B2, the binding result in assay [1] is on record as “binds”.

B3: THOC6 (protein, UniProt Q86W42 1-341)
chain: MERAVPLAVPLGQTEVFQALQRLHMTIFSQSVSPCGKFLAAGNNYGQIAIFSLSSALSSEAKEESKKPVVTFQAHDGPVYSMVSTDRHLLSAGDGEVKAWLWAEMLKKGCKELWRRQPPYRTSLEVPEINALLLVPKENSLILAGGDCQLHTMDLETGTFTRVLRGHTDYIHCLALRERSPEVLSGGEDGAVRLWDLRTAKEVQTIEVYKHEECSRPHNGRWIGCLATDSDWMVCGGGPALTLWHLRSSTPTTIFPIRAPQKHVTFYQDLILSAGQGRCVNQWQLSGELKAQVPGSSPGLLSLSLNQQPAAPECKVLTAAGNSCRVDVFTNLGYRAFSLSF
On to B3, for which the binding entry in assay [1] is on record as “binds”.

B4: THOC5 (protein, UniProt Q13769 1-683)
chain: MSSESSKKRKPKVIRSDGAPAEGKRNRSDTEQEGKYYSEEAEVDLRDPGRDYELYKYTCQELQRLMAEIQDLKSRGGKDVAIEIEERRIQSCVHFMTLKKLNRLAHIRLKKGRDQTHEAKQKVDAYHLQLQNLLYEVMHLQKEITKCLEFKSKHEEIDLVSLEEFYKEAPPDISKAEVTMGDPHQQTLARLDWELEQRKRLAEKYRECLSNKEKILKEIEVKKEYLSSLQPRLNSIMQASLPVQEYLFMPFDQAHKQYETARHLPPPLYVLFVQATAYGQACDKTLSVAIEGSVDEAKALFKPPEDSQDDESDSDAEEEQTTKRRRPTLGVQLDDKRKEMLKRHPLSVMLDLKCKDDSVLHLTFYYLMNLNIMTVKAKVTTAMELITPISAGDLLSPDSVLSCLYPGDHGKKTPNPANQYQFDKVGILTLSDYVLELGHPYLWVQKLGGLHFPKEQPQQTVIADHSLSASHMETTMKLLKTRVQSRLALHKQFASLEHGIVPVTSDCQYLFPAKVVSRLVKWVTVAHEDYMELHFTKDIVDAGLAGDTNLYYMALIERGTAKLQAAVVLNPGYSSIPPVFQLCLNWKGEKTNSNDDNIRAMEGEVNVCYKELCGPWPSHQLLTNQLQRLCVLLDVYLETESHDDSVEGPKEFPQEKMCLRLFRGPSRMKPFKYNHPQGFFSHR
Regarding B4, the binding entry in assay [1] is given as “binds”.

B5: THOC3 (protein, UniProt Q96J01 1-351)
chain: MAVPAAAMGPSALGQSGPGSMAPWCSVSSGPSRYVLGMQELFRGHSKTREFLAHSAKVHSVAWSCDGRRLASGSFDKTASVFLLEKDRLVKENNYRGHGDSVDQLCWHPSNPDLFVTASGDKTIRIWDVRTTKCIATVNTKGENINICWSPDGQTIAVGNKDDVVTFIDAKTHRSKAEEQFKFEVNEISWNNDNNMFFLTNGNGCINILSYPELKPVQSINAHPSNCICIKFDPMGKYFATGSADALVSLWDVDELVCVRCFSRLDWPVRTLSFSHDGKMLASASEDHFIDIAEVETGDKLWEVQCESPTFTVAWHPKRPLLAFACDDKDGKYDSSREAGTVKLFGLPNDS
As to B5, in assay [1], the binding result is given as “binds”.

B6: ACIN1 (protein, UniProt Q9UKV3 1-1341)
chain: MWRRKHPRTSGGTRGVLSGNRGVEYGSGRGHLGTFEGRWRKLPKMPEAVGTDPSTSRKMAELEEVTLDGKPLQALRVTDLKAALEQRGLAKSGQKSALVKRLKGALMLENLQKHSTPHAAFQPNSQIGEEMSQNSFIKQYLEKQQELLRQRLEREAREAAELEEASAESEDEMIHPEGVASLLPPDFQSSLERPELELSRHSPRKSSSISEEKGDSDDEKPRKGERRSSRVRQARAAKLSEGSQPAEEEEDQETPSRNLRVRADRNLKTEEEEEEEEEEEEDDEEEEGDDEGQKSREAPILKEFKEEGEEIPRVKPEEMMDERPKTRSQEQEVLERGGRFTRSQEEARKSHLARQQQEKEMKTTSPLEEEEREIKSSQGLKEKSKSPSPPRLTEDRKKASLVALPEQTASEEETPPPLLTKEASSPPPHPQLHSEEEIEPMEGPAPAVLIQLSPPNTDADTRELLVSQHTVQLVGGLSPLSSPSDTKAESPAEKVPEESVLPLVQKSTLADYSAQKDLEPESDRSAQPLPLKIEELALAKGITEECLKQPSLEQKEGRRASHTLLPSHRLKQSADSSSSRSSSSSSSSSRSRSRSPDSSGSRSHSPLRSKQRDVAQARTHANPRGRPKMGSRSTSESRSRSRSRSRSASSNSRKSLSPGVSRDSSTSYTETKDPSSGQEVATPPVPQLQVCEPKERTSTSSSSVQARRLSQPESAEKHVTQRLQPERGSPKKCEAEEAEPPAATQPQTSETQTSHLPESERIHHTVEEKEEVTMDTSENRPENDVPEPPMPIADQVSNDDRPEGSVEDEEKKESSLPKSFKRKISVVSATKGVPAGNSDTEGGQPGRKRRWGASTATTQKKPSISITTESLKSLIPDIKPLAGQEAVVDLHADDSRISEDETERNGDDGTHDKGLKICRTVTQVVPAEGQENGQREEEEEEKEPEAEPPVPPQVSVEVALPPPAEHEVKKVTLGDTLTRRSISQQKSGVSITIDDPVRTAQVPSPPRGKISNIVHISNLVRPFTLGQLKELLGRTGTLVEEAFWIDKIKSHCFVTYSTVEEAVATRTALHGVKWPQSNPKFLCADYAEQDELDYHRGLLVDRPSETKTEEQGIPRPLHPPPPPPVQPPQHPRAEQREQERAVREQWAEREREMERRERTRSEREWDRDKVREGPRSRSRSRDRRRKERAKSKEKKSEKKEKAQEEPPAKLLDDLFRKTKAAPCIYWLPLTDSQIVQKEAERAERAKEREKRRKEQEEEEQKEREKEAERERNRQLEREKRREHSRERDRERERERERDRGDRDRDRERDRERGRERDRRDTKRHSRSRSRSTPVRDRGGRR
B6: the binding entry in assay [1] was “binds”.

B7: SAP18 (protein, UniProt O00422 1-153)
chain: MAVESRVTQEEIKKEPEKPIDREKTCPLLLRVFTTNNGRHHRMDEFSRGNVPSSELQIYTWMDATLKELTSLVKEVYPEARKKGTHFNFAIVFTDVKRPGYRVKEIGSTMSGRKGTDDSMTLQSQKFQIGDYLDIAITPPNRAPPPSGRMRPY
For B7, the binding result in assay [1] was “binds”.
